Laboratory results: patent US20090209570A1 (priority 2001, published 2009)
Structures can show the parent of a compound that is named as a salt. Some entries share one result that the patent states for a list of compounds.

Sequences of proteins named here, by UniProt entry; tags and fusion partners are left off.
UniProt P33535, whole entry: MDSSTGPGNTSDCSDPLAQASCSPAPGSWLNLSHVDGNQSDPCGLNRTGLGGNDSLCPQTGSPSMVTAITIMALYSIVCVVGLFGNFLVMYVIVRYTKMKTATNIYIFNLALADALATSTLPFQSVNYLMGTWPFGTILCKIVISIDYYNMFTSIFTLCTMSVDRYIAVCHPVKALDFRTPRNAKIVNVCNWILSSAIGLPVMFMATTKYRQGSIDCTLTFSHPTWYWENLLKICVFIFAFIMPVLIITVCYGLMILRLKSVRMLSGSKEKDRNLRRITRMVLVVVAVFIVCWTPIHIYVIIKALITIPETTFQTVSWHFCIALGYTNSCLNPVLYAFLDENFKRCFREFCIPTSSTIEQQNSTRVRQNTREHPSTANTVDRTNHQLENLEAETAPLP

biological target: T1, μ-opioid receptors (Rattus norvegicus, UniProt P33535); assay: Opioid receptor binding studies with [3H]DAMGO on rat's brain homogenisates
T1 construct: from tissue; host or cells: rat brain homogenate

SMILES | affinity to μ-opioid receptors (in words)
CCOC(=O)CN[C@@H]1CC[C@@]2(OC)[C@H]3Cc4ccc(O)c5c4[C@@]2(CCN3C)[C@H]1O5 [Compound 23, (4,5α-epoxy-3-hydroxy-14β-methoxy-17-methylmorphinan-6β-ylamino)-acetic acid-ethylester dihydrochloride] | very high affinity
CO[C@@]12CCC(NCC(=O)OC(C)(C)C)[C@@H]3Oc4c(O)ccc5c4[C@@]31CCN(C)C2C5 (stereo in doubt) [Compound 2, (4,5α-epoxy-3-hydroxy-14β-methoxy-17-methylmorphinan-6β-ylamino)-acetic acid-tert.-butylester] | very high affinity
CO[C@@]12CC[C@@H](NC(=NC(=O)OC(C)(C)C)NC(=O)OC(C)(C)C)[C@@H]3Oc4c(O)ccc5c4[C@@]31CCN(C)C2C5 [Compound 16] | very high affinity
CO[C@@]12CC[C@H](NCC(=O)OC(C)(C)C)[C@@H]3Oc4c(O)ccc5c4[C@@]31CCN(C)[C@@H]2C5 [Compound 1, (4,5α-epoxy-3-hydroxy-14β-methoxy-17-methylmorphinan-6α-ylamino)-acetic acid-tert.-butylester] | very high affinity
CO[C@@]12CC[C@H](N[C@@H](Cc3ccccc3)C(=O)O)[C@@H]3Oc4c(O)ccc5c4[C@@]31CCN(C)C2C5 [Compound 11, (2′S)-2′-(4,5α-epoxy-3-hydroxy-14β-methoxy-17-methylmorphinan-6α-ylamino)-3′-phenylpropionic acid bis(tetrafluoroborate)] | very high affinity
CCOC(=O)CN[C@H]1CC[C@@]2(OC)[C@H]3Cc4ccc(O)c5c4[C@@]2(CCN3C)[C@H]1O5 [Compound 22, (4,5α-epoxy-3-hydroxy-14β-methoxy-17-methylmorphinan-6α-ylamino)-acetic acid-ethylester dihydrochloride] | very high affinity
CO[C@@]12CC[C@@H](NC(=N)N)[C@@H]3Oc4c(O)ccc5c4[C@@]31CCN(C)[C@@H]2C5 [Compound 17, 4,5α-epoxy-6β-guanidinyl-14β-methoxy-17-methylmorphinan-3-ol dihydrochloride] | very high affinity
